# Laboratory results from the supplement of paper PMC8728848.
# This is one part of the list.
# B1: Protein L(A-C2) (Finegoldia magna), Q51912 (protein)
# chain: ADEPIDLEKLEEKRDKENVGNLPKFDNEVKDGSENPMAKYPDFDDEASTRFETENNEFEEKKVVSDNFFDQSEHPFVENKEETPETPETDSEEEVTIKANLIFANGSTQTAEFKGTFEKATSEAYAYADTLKKDNGEYTVDVADKGYTLNIKFAGKEKTPEEPKEEVTIKANLIYADGKTQTAEFKGTFEEATAEAYRYADALKKDNGEYTVDVADKGYTLNIKFAGKEKTPEEPKEEVTIKANLIYADGKTQTAEFKGTFEEATAEAYRYADLLAKENGKYTVDVADKGYTLNIKFAGKEKTPEEPKEEVTIKANLIYADGKTQTAEFKGTFAEATAEAYRYADLLAKENGKYTADLEDGGYTINIRFAGKKVDEKPEEKEQVTIKENIYFEDGTVQTATFKGTFAEATAEAYRYADLLSKEHGKYTADLEDGGYTINIRFAGKEEPEETPEKPEVQDGYASYEEAEAAAKEALKNDDVNKSYTIRQGADGRYYYVLSPVEAEEEKPEAQNGYATYEEAEAAAKKALENDPINKSYSIRQGADGRYYYVLSPVEAE
# What was measured:
# Assay in all cases: glycan array binding signal (z-score within array); higher = stronger binding
# Conditions in all cases: glycan notation: IUPAC condensed, linker removed
# [1] = molecular target: Neu5Ac(a2-6)GlcNAc(b1-4)GlcNAc(b1-4)GlcNAc
# How it was run: (§1)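 Columns mapping to the same glycan were averaged after glycan names were converted to IUPAC-condensed notation. The data come from 3228 arrays in the Consortium for Functional Glycomics database, limited to those with an available protein sequence. Binding is reported as a within-array Z-score averaged across arrays of one protein sequence and across linkers.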
# [2] = molecular target: Neu5Ac(a2-8)Neu5Ac
# How it was run: as §1
# [3] = molecular target: Neu5Ac(a2-8)Neu5Ac(a2-3)Gal(b1-3)GalNAc(b1-4)[Neu5Ac(a2-3)]Gal(b1-4)Glc
# How it was run: as §1
# [4] = molecular target: Neu5Ac(a2-8)Neu5Ac(a2-3)Gal(b1-3)GalNAc(b1-4)[Neu5Ac(a2-8)Neu5Ac(a2-3)]Gal(b1-4)Glc
# How it was run: as §1
# [5] = molecular target: Neu5Ac(a2-8)Neu5Ac(a2-3)Gal(b1-4)Glc
# How it was run: as §1
# [6] = molecular target: Neu5Ac(a2-8)Neu5Ac(a2-3)Gal(b1-4)GlcNAc
# How it was run: as §1
# [7] = molecular target: Neu5Ac(a2-8)Neu5Ac(a2-3)[Gal(b1-3)GalNAc(b1-4)]Gal(b1-4)Glc
# How it was run: as §1
# [8] = molecular target: Neu5Ac(a2-8)Neu5Ac(a2-3)[GalNAc(b1-4)]Gal(b1-4)Glc
# How it was run: as §1
# [9] = molecular target: Neu5Ac(a2-8)Neu5Ac(a2-8)Neu5Ac
# How it was run: as §1
# [10] = molecular target: Neu5Ac(a2-8)Neu5Ac(a2-8)Neu5Ac(a2-3)Gal(b1-4)Glc
# How it was run: as §1
# [11] = molecular target: Neu5Ac(a2-8)Neu5Ac(a2-8)Neu5Ac(a2-3)[Gal(b1-3)GalNAc(b1-4)]Gal(b1-4)Glc
# How it was run: as §1
# [12] = molecular target: Neu5Ac(a2-8)Neu5Ac(a2-8)Neu5Ac(a2-3)[GalNAc(b1-4)]Gal(b1-4)Glc
# How it was run: as §1
# [13] = molecular target: Neu5Ac(a2-8)Neu5Ac(a2-8)Neu5Ac(a2-8)Neu5Ac(a2-3)[GalNAc(b1-4)]Gal(b1-4)Glc
# How it was run: as §1
# [14] = molecular target: Neu5Ac(a2-8)Neu5Gc(a2-3)Gal(b1-4)GlcNAc
# How it was run: as §1
# [15] = molecular target: Neu5Ac(b2-6)Gal(b1-4)GlcNAc
# How it was run: as §1
# [16] = molecular target: Neu5Ac(b2-6)GalNAc
# How it was run: as §1
# [17] = molecular target: Neu5Ac9Ac(a2-3)Gal(b1-4)GlcNAc
# How it was run: as §1
# [18] = molecular target: Neu5Ac9Ac(a2-6)Gal(b1-4)GlcNAc
# How it was run: as §1
# [19] = molecular target: Neu5Gc(a2-3)Gal(b1-3)GlcNAc
# How it was run: as §1
# [20] = molecular target: Neu5Gc(a2-3)Gal(b1-3)[Fuc(a1-4)]GlcNAc
# How it was run: as §1
# [21] = molecular target: Neu5Gc(a2-3)Gal(b1-4)Glc
# How it was run: as §1
# [22] = molecular target: Neu5Gc(a2-3)Gal(b1-4)GlcNAc
# How it was run: as §1
# [23] = molecular target: Neu5Gc(a2-3)Gal(b1-4)GlcNAc(b1-3)Gal(b1-4)GlcNAc(b1-2)Man(a1-3)[Neu5Gc(a2-3)Gal(b1-4)GlcNAc(b1-3)Gal(b1-4)GlcNAc(b1-2)Man(a1-6)]Man(b1-4)GlcNAc(b1-4)GlcNAc
# How it was run: as §1
# [24] = molecular target: Neu5Gc(a2-3)Gal(b1-4)[Fuc(a1-3)]GlcNAc
# How it was run: as §1
# [25] = molecular target: Neu5Gc(a2-6)Gal(b1-4)GlcNAc
# How it was run: as §1
# [26] = molecular target: Neu5Gc(a2-6)GalNAc
# How it was run: as §1
# [27] = molecular target: Neu5Gc(a2-8)Neu5Ac(a2-3)Gal(b1-4)GlcNAc
# How it was run: as §1
# [28] = molecular target: Neu5Gc(a2-8)Neu5Gc(a2-3)Gal(b1-4)GlcNAc
# How it was run: as §1
# [29] = molecular target: Neu5Gc(a2-8)Neu5Gc(a2-3)Gal(b1-4)GlcNAc(b1-3)Gal(b1-4)GlcNAc
# How it was run: as §1
# [30] = molecular target: Neu5Gc(a2-8)Neu5Gc(a2-6)Gal(b1-4)GlcNAc
# How it was run: as §1
# [31] = molecular target: Neu5Gc(b2-6)Gal(b1-4)GlcNAc
# How it was run: as §1
binder,measurement,setting,value
B1,glycan array binding signal (z-score),[1],-0.71
same,glycan array binding signal (z-score),[2],-0.275
same,glycan array binding signal (z-score),[3],-0.888
same,glycan array binding signal (z-score),[4],-0.257
same,glycan array binding signal (z-score),[5],-1.31
same,glycan array binding signal (z-score),[6],-1.02
same,glycan array binding signal (z-score),[7],0.898
same,glycan array binding signal (z-score),[8],0.868
same,glycan array binding signal (z-score),[9],-0.849
same,glycan array binding signal (z-score),[10],-0.481
same,glycan array binding signal (z-score),[11],-0.46
same,glycan array binding signal (z-score),[12],-0.494
same,glycan array binding signal (z-score),[13],0.283
same,glycan array binding signal (z-score),[14],-0.658
same,glycan array binding signal (z-score),[15],-0.736
same,glycan array binding signal (z-score),[16],-0.832
same,glycan array binding signal (z-score),[17],-0.66
same,glycan array binding signal (z-score),[18],-0.809
same,glycan array binding signal (z-score),[19],-0.028
same,glycan array binding signal (z-score),[20],-0.858
same,glycan array binding signal (z-score),[21],-0.493
same,glycan array binding signal (z-score),[22],-1.16
same,glycan array binding signal (z-score),[23],0.473
same,glycan array binding signal (z-score),[24],-0.672
same,glycan array binding signal (z-score),[25],-0.86
same,glycan array binding signal (z-score),[26],-0.164
same,glycan array binding signal (z-score),[27],0.183
same,glycan array binding signal (z-score),[28],-0.82
same,glycan array binding signal (z-score),[29],-1.01
same,glycan array binding signal (z-score),[30],0.244
same,glycan array binding signal (z-score),[31],-0.275

# Reformatted tab-delimited: entries from further up
binder	measurement	setting	value
B1	glycan array binding signal (z-score)	[5]	-1.31
same	glycan array binding signal (z-score)	[6]	-1.02
same	glycan array binding signal (z-score)	[10]	-0.481
same	glycan array binding signal (z-score)	[12]	-0.494
same	glycan array binding signal (z-score)	[19]	-0.028
same	glycan array binding signal (z-score)	[20]	-0.858
same	glycan array binding signal (z-score)	[26]	-0.164
same	glycan array binding signal (z-score)	[31]	-0.275
